# Test results: the supplement of paper PMC7666118
# Sequences of proteins named here, by UniProt entry; tags and fusion partners are left off. A change or cut given only in a name is not applied to a line headed by its entry.
# UniProt Q96RR4, whole entry, looked up: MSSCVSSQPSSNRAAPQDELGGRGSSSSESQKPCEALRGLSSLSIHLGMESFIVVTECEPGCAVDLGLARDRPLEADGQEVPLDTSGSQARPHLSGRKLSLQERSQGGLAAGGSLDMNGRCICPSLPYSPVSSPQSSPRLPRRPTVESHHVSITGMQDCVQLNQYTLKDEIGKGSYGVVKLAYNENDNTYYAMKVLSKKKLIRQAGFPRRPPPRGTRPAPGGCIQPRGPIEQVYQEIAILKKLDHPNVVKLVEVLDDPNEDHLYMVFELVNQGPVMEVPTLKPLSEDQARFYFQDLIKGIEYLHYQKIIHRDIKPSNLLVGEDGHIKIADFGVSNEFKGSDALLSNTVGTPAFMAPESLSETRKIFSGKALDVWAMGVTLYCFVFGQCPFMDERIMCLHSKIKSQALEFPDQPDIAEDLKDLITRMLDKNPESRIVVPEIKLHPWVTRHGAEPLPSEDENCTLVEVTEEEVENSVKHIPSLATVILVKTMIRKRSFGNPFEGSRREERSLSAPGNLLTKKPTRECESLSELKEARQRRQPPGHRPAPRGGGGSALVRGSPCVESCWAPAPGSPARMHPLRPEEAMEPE
# UniProt Q5TGZ0: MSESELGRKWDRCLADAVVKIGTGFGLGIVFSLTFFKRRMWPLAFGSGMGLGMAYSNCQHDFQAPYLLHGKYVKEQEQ
# UniProt P16383: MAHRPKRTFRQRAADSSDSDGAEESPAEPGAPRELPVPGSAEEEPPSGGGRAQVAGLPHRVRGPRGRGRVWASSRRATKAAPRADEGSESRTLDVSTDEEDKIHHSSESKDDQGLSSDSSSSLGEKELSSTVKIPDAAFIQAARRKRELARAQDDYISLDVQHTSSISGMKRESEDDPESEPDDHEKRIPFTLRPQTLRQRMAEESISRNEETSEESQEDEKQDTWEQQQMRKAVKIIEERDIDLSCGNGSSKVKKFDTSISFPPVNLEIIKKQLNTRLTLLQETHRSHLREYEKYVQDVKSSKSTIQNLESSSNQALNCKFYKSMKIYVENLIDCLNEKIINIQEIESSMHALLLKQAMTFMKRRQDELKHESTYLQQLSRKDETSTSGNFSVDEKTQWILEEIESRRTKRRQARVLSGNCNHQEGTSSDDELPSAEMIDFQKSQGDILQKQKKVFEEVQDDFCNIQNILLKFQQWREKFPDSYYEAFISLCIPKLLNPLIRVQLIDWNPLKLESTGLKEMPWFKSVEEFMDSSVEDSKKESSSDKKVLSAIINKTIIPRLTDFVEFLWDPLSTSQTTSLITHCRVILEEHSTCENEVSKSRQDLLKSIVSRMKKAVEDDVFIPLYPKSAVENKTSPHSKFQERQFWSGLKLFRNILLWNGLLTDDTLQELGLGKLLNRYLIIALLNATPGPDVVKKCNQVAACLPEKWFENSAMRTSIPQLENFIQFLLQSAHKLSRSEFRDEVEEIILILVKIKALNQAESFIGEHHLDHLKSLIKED
# UniProt Q9NWY4: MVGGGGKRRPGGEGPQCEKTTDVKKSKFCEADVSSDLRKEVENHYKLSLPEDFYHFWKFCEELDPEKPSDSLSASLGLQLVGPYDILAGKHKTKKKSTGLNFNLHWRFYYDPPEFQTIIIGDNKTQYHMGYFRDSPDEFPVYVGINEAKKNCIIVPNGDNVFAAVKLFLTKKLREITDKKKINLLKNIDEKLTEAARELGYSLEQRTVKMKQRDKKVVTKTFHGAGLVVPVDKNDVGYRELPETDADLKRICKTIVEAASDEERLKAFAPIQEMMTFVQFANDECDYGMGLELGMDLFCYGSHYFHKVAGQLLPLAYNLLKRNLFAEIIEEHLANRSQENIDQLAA
# UniProt Q6YP21: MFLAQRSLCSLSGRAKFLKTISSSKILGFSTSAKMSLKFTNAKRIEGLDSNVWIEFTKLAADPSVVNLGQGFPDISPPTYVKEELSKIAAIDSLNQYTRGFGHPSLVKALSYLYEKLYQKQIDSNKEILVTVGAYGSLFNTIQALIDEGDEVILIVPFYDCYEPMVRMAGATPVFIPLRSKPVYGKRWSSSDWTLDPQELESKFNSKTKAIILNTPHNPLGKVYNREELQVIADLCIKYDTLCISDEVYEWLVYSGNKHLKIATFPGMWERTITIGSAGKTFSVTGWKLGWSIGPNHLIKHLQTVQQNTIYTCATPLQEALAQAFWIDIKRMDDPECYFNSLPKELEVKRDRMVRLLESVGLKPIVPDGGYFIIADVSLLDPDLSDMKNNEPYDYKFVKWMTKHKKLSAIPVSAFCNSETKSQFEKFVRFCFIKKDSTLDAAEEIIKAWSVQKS
# UniProt Q5T3J3: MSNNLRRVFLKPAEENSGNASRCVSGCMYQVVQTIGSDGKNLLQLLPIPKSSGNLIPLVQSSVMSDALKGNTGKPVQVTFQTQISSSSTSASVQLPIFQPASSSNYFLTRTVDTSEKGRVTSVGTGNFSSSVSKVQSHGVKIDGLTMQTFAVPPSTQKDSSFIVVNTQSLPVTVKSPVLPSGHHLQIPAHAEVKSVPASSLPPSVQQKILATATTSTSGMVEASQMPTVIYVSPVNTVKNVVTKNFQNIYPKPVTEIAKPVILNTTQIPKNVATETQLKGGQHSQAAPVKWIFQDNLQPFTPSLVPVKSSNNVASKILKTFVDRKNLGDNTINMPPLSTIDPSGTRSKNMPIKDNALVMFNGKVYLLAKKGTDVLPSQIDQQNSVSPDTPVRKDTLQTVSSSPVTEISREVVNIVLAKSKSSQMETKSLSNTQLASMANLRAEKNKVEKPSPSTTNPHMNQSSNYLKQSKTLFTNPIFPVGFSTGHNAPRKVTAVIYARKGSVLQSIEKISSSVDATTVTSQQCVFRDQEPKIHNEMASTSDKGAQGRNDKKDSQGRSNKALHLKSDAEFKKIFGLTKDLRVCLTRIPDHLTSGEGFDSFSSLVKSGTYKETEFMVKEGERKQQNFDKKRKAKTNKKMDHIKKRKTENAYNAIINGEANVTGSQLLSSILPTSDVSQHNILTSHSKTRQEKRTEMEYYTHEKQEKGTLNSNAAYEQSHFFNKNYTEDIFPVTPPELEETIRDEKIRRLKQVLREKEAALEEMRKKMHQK
# UniProt P29466: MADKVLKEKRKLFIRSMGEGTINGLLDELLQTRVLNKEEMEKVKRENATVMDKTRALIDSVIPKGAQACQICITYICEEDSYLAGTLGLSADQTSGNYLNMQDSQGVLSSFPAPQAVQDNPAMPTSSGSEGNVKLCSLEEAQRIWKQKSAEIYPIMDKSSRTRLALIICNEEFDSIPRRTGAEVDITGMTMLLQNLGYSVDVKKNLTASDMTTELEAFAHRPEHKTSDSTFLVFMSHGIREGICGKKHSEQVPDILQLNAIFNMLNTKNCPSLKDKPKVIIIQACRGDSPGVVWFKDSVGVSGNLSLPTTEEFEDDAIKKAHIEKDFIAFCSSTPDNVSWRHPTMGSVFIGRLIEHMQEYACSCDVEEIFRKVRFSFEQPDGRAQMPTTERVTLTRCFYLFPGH
# UniProt Q2NKX9: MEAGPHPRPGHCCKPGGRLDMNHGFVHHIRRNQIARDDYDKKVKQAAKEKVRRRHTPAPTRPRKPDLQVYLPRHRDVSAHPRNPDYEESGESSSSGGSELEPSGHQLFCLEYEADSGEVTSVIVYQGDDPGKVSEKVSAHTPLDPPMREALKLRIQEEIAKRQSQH
# UniProt Q13951, whole entry: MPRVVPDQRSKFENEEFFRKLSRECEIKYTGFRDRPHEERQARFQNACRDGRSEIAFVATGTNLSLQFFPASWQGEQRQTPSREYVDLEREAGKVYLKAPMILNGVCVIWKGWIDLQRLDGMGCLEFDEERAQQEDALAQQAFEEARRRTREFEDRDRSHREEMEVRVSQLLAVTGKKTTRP
# UniProt Q5SQH8: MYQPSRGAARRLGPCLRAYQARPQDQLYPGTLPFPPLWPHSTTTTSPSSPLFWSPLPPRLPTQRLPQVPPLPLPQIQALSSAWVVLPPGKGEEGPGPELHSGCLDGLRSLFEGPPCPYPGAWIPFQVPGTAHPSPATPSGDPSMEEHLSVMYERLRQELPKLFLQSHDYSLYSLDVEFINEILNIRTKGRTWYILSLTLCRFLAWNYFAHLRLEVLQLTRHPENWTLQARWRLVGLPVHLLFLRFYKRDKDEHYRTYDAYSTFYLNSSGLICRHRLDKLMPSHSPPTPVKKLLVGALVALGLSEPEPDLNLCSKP
# UniProt P07384: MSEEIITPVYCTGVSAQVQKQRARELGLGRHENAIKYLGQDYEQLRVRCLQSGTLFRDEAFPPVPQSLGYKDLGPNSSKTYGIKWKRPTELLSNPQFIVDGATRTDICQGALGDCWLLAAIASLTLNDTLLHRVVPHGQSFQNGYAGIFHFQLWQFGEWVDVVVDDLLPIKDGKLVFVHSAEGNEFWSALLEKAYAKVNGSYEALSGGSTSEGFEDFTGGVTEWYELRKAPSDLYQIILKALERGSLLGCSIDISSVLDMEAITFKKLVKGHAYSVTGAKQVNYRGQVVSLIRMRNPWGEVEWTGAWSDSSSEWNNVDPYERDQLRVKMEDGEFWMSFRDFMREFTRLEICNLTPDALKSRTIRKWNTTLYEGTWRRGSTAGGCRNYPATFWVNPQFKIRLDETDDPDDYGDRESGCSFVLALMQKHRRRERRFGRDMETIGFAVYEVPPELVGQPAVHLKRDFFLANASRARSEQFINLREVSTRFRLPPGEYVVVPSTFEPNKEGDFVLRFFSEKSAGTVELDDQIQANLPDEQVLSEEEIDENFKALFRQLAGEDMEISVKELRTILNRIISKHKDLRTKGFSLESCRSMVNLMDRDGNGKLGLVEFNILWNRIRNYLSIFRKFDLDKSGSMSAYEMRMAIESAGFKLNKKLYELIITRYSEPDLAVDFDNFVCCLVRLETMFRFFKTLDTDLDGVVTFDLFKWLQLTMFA
# UniProt Q9Y2S6, whole entry: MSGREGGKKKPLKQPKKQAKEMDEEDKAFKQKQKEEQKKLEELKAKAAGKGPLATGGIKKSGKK
# UniProt O95873: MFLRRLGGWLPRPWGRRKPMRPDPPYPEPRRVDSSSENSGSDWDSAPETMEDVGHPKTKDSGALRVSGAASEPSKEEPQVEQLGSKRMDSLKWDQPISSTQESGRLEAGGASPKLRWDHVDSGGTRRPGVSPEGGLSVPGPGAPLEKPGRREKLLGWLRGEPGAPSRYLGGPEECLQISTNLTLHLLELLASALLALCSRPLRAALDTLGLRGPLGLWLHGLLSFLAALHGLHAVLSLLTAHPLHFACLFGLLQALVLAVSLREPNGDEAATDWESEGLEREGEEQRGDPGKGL
# UniProt Q6PJG6: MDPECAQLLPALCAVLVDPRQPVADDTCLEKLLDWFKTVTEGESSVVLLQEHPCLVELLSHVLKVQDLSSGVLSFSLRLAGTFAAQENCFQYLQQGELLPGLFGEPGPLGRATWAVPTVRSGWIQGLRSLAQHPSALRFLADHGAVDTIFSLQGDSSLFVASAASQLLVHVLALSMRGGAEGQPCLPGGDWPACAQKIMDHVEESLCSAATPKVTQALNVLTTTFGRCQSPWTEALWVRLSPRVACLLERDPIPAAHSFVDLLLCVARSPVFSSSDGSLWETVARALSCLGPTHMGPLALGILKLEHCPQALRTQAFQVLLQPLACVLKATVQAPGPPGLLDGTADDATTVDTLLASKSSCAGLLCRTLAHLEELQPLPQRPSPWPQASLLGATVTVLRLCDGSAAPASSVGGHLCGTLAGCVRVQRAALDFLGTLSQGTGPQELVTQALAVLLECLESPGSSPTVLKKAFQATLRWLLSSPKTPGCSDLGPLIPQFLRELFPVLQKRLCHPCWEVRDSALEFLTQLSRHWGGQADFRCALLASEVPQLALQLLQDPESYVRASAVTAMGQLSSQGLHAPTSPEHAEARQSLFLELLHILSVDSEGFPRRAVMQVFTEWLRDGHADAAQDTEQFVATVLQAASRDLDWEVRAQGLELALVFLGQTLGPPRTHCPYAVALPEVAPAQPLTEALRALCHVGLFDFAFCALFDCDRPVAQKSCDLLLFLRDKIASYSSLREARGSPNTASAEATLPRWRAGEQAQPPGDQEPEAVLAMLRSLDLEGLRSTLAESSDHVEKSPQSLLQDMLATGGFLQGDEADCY
# UniProt Q9UK39: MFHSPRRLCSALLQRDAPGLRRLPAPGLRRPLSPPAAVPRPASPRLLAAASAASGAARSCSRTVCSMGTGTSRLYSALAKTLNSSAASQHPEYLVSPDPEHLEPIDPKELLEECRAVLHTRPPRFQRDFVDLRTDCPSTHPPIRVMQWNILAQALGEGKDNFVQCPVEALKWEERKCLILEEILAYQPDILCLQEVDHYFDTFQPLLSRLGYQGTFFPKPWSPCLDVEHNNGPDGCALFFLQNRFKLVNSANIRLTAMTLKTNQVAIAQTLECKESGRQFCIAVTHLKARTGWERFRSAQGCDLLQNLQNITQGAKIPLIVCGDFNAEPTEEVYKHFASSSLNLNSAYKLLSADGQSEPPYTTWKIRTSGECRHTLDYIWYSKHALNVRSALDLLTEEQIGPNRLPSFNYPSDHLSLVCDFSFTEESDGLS
# UniProt Q8N5L8: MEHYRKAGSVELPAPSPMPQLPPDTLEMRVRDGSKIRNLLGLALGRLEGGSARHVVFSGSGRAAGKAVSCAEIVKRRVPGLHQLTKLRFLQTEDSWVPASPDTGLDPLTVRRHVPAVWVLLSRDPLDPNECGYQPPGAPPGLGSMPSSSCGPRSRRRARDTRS
# Some of the results follow.
# Compound: COc1ccc(Cn2ccc3cc(C)c(C(=O)NO)cc32)cc1
# Test: dose-dependent thermal stabilisation call (2D-TPP, DLPTP, 10% FDR) (binary (1 = stabilised)); higher = stabilised by the compound
# Settings: system: HL-60 intact cells; concentration range 0.04-10 µM
# Protocol: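 2D thermal proteome profiling in intact HL-60 cells treated with BRD-3811 (0, 0.04, 0.29, 2, 10 uM) for 90 min at 37 C, then heated 3 min at one of 12 temperatures (42-63.9 C). Soluble protein was quantified by TMT10 MS. The value is the DLPTP call of the paper: dose-dependent thermal stabilisation over all temperatures at 10% FDR (F-test of a dose-response against a flat model); one experiment, one call per tested protein.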
row,Target,dose-dependent thermal stabilisation call
1,CAMKK2 (UniProt Q96RR4),inactive: 0
2,CD4 (UniProt P01730),inactive: 0
3,C6ORF125 (UniProt Q9BRT2),inactive: 0
4,C6ORF211 (UniProt Q9H993),inactive: 0
5,CCDC56 (UniProt Q9Y2R0),inactive: 0
6,C21ORF45 (UniProt Q9NYP9),inactive: 0
7,C1ORF151 (UniProt Q5TGZ0),inactive: 0
8,C2ORF3 (UniProt P16383),inactive: 0
9,C20ORF20 (UniProt Q9NV56),inactive: 0
10,C2ORF79 (UniProt Q6GMV3),inactive: 0
11,CANX (UniProt P27824),inactive: 0
12,C3ORF64 (UniProt Q5NDL2),inactive: 0
13,CCNB1 (UniProt P14635),inactive: 0
14,CCDC9 (UniProt Q9Y3X0),inactive: 0
15,C4ORF27 (UniProt Q9NWY4),inactive: 0
16,CCBL2 (UniProt Q6YP21),inactive: 0
17,C19ORF70 (UniProt Q5XKP0),inactive: 0
18,C1ORF103 (UniProt Q5T3J3),inactive: 0

# Laid out differently: entries from further up
row | Target | dose-dependent thermal stabilisation call
17 | C19ORF70 (UniProt Q5XKP0) | inactive: 0
18 | C1ORF103 (UniProt Q5T3J3) | inactive: 0

# Later entries:

row,Target,dose-dependent thermal stabilisation call
1,C1ORF77 (UniProt Q9Y3Y2),inactive: 0
2,CCDC58 (UniProt Q4VC31),inactive: 0
3,CAMK2G (UniProt Q13555),inactive: 0
4,CASP1 (UniProt P29466),inactive: 0
5,C2ORF68 (UniProt Q2NKX9),inactive: 0
6,C6ORF108 (UniProt O43598),inactive: 0
7,CBFB (UniProt Q13951),inactive: 0
8,C6ORF136 (UniProt Q5SQH8),inactive: 0
9,C9ORF86 (UniProt Q3YEC7),inactive: 0
10,CAPN1 (UniProt P07384),inactive: 0
11,CCDC76 (UniProt Q9NUP7),inactive: 0
12,CCDC72 (UniProt Q9Y2S6),inactive: 0
13,CCDC99 (UniProt Q96EA4),inactive: 0
14,C6ORF47 (UniProt O95873),inactive: 0
15,C7ORF27 (UniProt Q6PJG6),inactive: 0
16,CCRN4L (UniProt Q9UK39),inactive: 0
17,C9ORF23 (UniProt Q8N5L8),inactive: 0
18,CCDC22 (UniProt O60826),inactive: 0
